{"source": "PubChem BioAssay AID248", "about": "(DTP/NCI, 2004)", "system": "L1210 leukemia ip in BDF1 mice, survival T/C", "test": "NCI In Vivo Anticancer Drug Screen. Data for tumor model L1210 Leukemia (intraperitoneal) in B6D2F1 (BDF1) mice", "settings": "T/C endpoint: mean survival time, higher T/C = longer survival", "key": {"[1]": {"settings": "dose: 40.0 mg/kg/injection, schedule: Q01DX001 (ip), vehicle: saline"}, "[2]": {"settings": "dose: 75.0 mg/kg/injection, schedule: Q01DX001 (ip), vehicle: saline"}, "[3]": {"settings": "dose: 150.0 mg/kg/injection, schedule: Q01DX001 (ip), vehicle: saline"}, "[4]": {"settings": "dose: 300.0 mg/kg/injection, schedule: Q01DX001 (ip), vehicle: saline"}}, "note": "The list shows only some results of the screen, not a fair sample: it gathers tests that were run many times, whatever their T/C, doses with no T/C, and many T/C values between a quarter and a half above the control. Other doses and runs of a compound stand elsewhere. T/C: endpoint of the treated group in % of that of the vehicle group. Some doses have a count of surviving animals in place of a T/C: the source files T/C as zero there, which appears to mark a toxic dose or a test without result, not a measured value. Some doses without a T/C left all or most animals alive at the check, yet need not have been tolerated: the source hardly ever lists a survival T/C far under the control, and the zero likely stands for such cases as well. Survivors were counted at the toxicity check, usually on the fifth day, unless a day is given; later deaths do not show. Schedules are NCI's codes, taken here to give the interval after Q, in days (D) or hours (H), and the number of doses after X. Some schedules carry Z or #; the key to these is not given. Where survival is the endpoint, the PubChem record calls one and a half times the control and up active, and a quarter to a half above the control has no call in these data; cut-offs in other NCI protocols can differ. Some T/C values are followed by the survivors on the day toxicity was checked, most often the fifth; where none is given, no animal had died by that day."}
{"smiles": "O=NN(CCCl)C(=O)Nc1c[nH]c2ccccc12", "values": [{"measurement": "T/C", "setting": "dose: 177.0 mg/kg/injection, schedule: Q01DX001 (ip), vehicle: carboxymethylcellulose (CMC)", "value": "133 % of control"}, {"measurement": "T/C", "setting": "dose: 266.0 mg/kg/injection, schedule: Q01DX001 (ip), vehicle: carboxymethylcellulose (CMC)", "value": "128 % of control"}, {"measurement": "T/C", "setting": "dose: 400.0 mg/kg/injection, schedule: Q01DX001 (ip), vehicle: carboxymethylcellulose (CMC)", "value": "125 % of control"}, {"measurement": "T/C", "setting": "dose: 400.0 mg/kg/injection, schedule: Q01DX009 (ip), vehicle: carboxymethylcellulose (CMC)", "value": "134 % of control"}, {"measurement": "T/C", "setting": "dose: 600.0 mg/kg/injection, schedule: Q01DX001 (ip), vehicle: carboxymethylcellulose (CMC)", "value": "142 % of control"}]}
{"smiles": "CCOC1=C(N2CC2)C(=O)C(OCC)=C(N2CC2)C1=O", "values": [{"measurement": "T/C", "setting": "dose: 0.63 mg/kg/injection, schedule: Q01DX Z (ip), vehicle: methylcellulose (MC)", "value": "126 % of control"}, {"measurement": "T/C", "setting": "dose: 1.1 mg/kg/injection, schedule: Q01DX Z (ip), vehicle: saline", "value": "135 % of control"}, {"measurement": "T/C", "setting": "dose: 1.25 mg/kg/injection, schedule: Q01DX Z (ip), vehicle: methylcellulose (MC)", "value": "136 % of control"}, {"measurement": "T/C", "setting": "dose: 1.7 mg/kg/injection, schedule: Q01DX Z (ip), vehicle: saline", "value": "144 % of control"}, {"measurement": "T/C", "setting": "dose: 2.0 mg/kg/injection, schedule: Q01DX Z (ip), vehicle: saline", "value": "145 % of control"}, {"measurement": "T/C", "setting": "dose: 2.5 mg/kg/injection, schedule: Q01DX009 (ip), vehicle: saline", "value": "149 % of control"}, {"measurement": "T/C", "setting": "dose: 2.5 mg/kg/injection, schedule: Q01DX Z (ip), vehicle: methylcellulose (MC)", "value": "147 % of control [5 of 6 alive]"}, {"measurement": "T/C", "setting": "dose: 5.0 mg/kg/injection, schedule: Q01DX009 (ip), vehicle: saline", "value": "137 % of control"}, {"measurement": "survivor count", "setting": "dose: 8.0 mg/kg/injection, schedule: Q01DX Z (ip), vehicle: saline", "value": "4 of 6"}, {"measurement": "survivor count", "setting": "dose: 10.0 mg/kg/injection, schedule: Q01DX009 (ip), vehicle: saline", "value": "6 of 6"}, {"measurement": "survivor count", "setting": "dose: 10.0 mg/kg/injection, schedule: Q01DX Z (ip), vehicle: carboxymethylcellulose (CMC)", "value": "3 of 6"}, {"measurement": "survivor count", "setting": "dose: 20.0 mg/kg/injection, schedule: Q01DX001 (ip), vehicle: saline", "value": "2 of 6"}, {"measurement": "survivor count", "setting": "dose: 20.0 mg/kg/injection, schedule: Q01DX009 (ip), vehicle: saline", "value": "5 of 6"}, {"measurement": "survivor count", "setting": "dose: 20.0 mg/kg/injection, schedule: Q01DX Z (ip), vehicle: carboxymethylcellulose (CMC)", "value": "0 of 6"}, {"measurement": "survivor count", "setting": "[1]", "value": "1 of 6"}, {"measurement": "survivor count", "setting": "[2]", "value": "1 of 6"}, {"measurement": "survivor count", "setting": "[3]", "value": "0 of 6"}, {"measurement": "survivor count", "setting": "[4]", "value": "0 of 6"}]}
{"smiles": "BrP(Nc1cccc(NP(Br)(c2ccccc2)(c2ccccc2)c2ccccc2)c1)(c1ccccc1)(c1ccccc1)c1ccccc1", "values": [{"measurement": "survivor count", "setting": "[1]", "value": "6 of 6"}, {"measurement": "survivor count", "setting": "[2]", "value": "0 of 6"}, {"measurement": "survivor count", "setting": "[3]", "value": "0 of 6"}, {"measurement": "survivor count", "setting": "[4]", "value": "0 of 6"}]}
{"smiles": "O=C(CCl)Nc1ccccc1S(=O)(=O)F", "values": [{"measurement": "survivor count", "setting": "dose: 75.0 mg/kg/injection, schedule: Q01DX009 (ip), vehicle: carboxymethylcellulose (CMC)", "value": "5 of 6"}, {"measurement": "survivor count", "setting": "dose: 300.0 mg/kg/injection, schedule: Q04DX003 (ip), vehicle: carboxymethylcellulose (CMC)", "value": "0 of 6"}]}
{"smiles": "Nc1ccc(CCCCc2ccccc2)c(Cl)c1", "values": [{"measurement": "survivor count", "setting": "[4]", "value": "2 of 6"}]}
